No constants are given. Whether binding was seen depends on the method and setting. Binding seen in cells or lysates may run through a third protein. Some binding calls cover weakened binding; strength is not graded here.

Protein sequences, listed by entry. Tags and fused reporters are not part of them.
UniProt P40763: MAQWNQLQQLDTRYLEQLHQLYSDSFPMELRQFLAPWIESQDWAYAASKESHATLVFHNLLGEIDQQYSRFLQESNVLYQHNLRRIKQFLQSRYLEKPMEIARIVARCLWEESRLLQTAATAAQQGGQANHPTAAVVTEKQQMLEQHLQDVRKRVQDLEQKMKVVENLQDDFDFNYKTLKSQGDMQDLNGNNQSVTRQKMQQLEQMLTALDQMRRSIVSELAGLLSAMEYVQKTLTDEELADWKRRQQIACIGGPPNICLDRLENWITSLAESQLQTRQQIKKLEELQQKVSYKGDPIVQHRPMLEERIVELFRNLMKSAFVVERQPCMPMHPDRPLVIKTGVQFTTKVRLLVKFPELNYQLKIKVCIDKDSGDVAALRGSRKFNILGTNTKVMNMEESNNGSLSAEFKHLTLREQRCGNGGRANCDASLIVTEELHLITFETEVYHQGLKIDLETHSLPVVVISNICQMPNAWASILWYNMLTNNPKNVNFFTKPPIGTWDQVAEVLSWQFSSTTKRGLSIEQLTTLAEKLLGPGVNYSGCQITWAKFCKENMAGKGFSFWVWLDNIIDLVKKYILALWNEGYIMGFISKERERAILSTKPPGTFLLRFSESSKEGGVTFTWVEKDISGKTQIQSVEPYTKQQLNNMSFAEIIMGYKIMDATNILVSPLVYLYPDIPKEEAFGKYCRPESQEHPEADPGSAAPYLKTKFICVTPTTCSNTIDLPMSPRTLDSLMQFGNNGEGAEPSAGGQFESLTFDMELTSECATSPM

The target of assay [1] is T1, SLC2A3 (human (endogenous in MKN45 and SNU216)) (UniProt P11169).
T1 sequence: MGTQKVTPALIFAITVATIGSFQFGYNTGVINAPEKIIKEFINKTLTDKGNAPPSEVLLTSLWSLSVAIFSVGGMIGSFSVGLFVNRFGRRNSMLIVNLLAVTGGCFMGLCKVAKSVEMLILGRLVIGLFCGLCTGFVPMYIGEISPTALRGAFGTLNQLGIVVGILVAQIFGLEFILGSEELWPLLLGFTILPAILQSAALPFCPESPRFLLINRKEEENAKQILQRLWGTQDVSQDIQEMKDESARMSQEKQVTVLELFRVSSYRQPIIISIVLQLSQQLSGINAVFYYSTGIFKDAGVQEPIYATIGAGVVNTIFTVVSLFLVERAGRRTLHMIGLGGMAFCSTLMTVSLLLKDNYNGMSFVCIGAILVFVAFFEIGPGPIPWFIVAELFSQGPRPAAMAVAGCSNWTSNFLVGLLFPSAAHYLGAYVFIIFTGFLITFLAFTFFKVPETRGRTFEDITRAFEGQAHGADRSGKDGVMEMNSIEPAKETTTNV
The assay can be described thus: co-IP; lysate (100 ug protein) of MKN45 and SNU216 cells incubated with anti-SLC2A3, anti-p-STAT3 (Tyr705) or IgG (negative control) at 4 C overnight; protein A/G magnetic beads 4-6 h at 4 C; four washes with PBS; western blot.

Assay [2] has as its target phosphorylated STAT3 (Tyr705) (human (endogenous in MKN45 and SNU216)) (UniProt P40763). Described as above.

On to “phosphorylated STAT3 (Tyr705) (from UniProt P40763 1-770)”, for which the binding entry in assay [1] was “binds”.

B1: SLC2A3 (protein, UniProt P11169 1-496)
chain: MGTQKVTPALIFAITVATIGSFQFGYNTGVINAPEKIIKEFINKTLTDKGNAPPSEVLLTSLWSLSVAIFSVGGMIGSFSVGLFVNRFGRRNSMLIVNLLAVTGGCFMGLCKVAKSVEMLILGRLVIGLFCGLCTGFVPMYIGEISPTALRGAFGTLNQLGIVVGILVAQIFGLEFILGSEELWPLLLGFTILPAILQSAALPFCPESPRFLLINRKEEENAKQILQRLWGTQDVSQDIQEMKDESARMSQEKQVTVLELFRVSSYRQPIIISIVLQLSQQLSGINAVFYYSTGIFKDAGVQEPIYATIGAGVVNTIFTVVSLFLVERAGRRTLHMIGLGGMAFCSTLMTVSLLLKDNYNGMSFVCIGAILVFVAFFEIGPGPIPWFIVAELFSQGPRPAAMAVAGCSNWTSNFLVGLLFPSAAHYLGAYVFIIFTGFLITFLAFTFFKVPETRGRTFEDITRAFEGQAHGADRSGKDGVMEMNSIEPAKETTTNV
As to B1, the binding result in assay [2] was “binds”.

Values taken from publication PMC7552479.
